PubChem BioAssay AID504808, Drosophila RNAi Screening Center | 2011

- Screen: 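Chromatin factors that keep E2F targets switched off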 (primary screen)
- System: Drosophila S2 cells
- Reagents: long dsRNA against Drosophila genes
- Read-out: 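Firefly luciferase driven by E2F sites, normalised to Renilla luciferase on the same minimal promoter, measured by plate reader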
- Reading the numbers: E2F firefly: higher = more E2F reporter activity; Renilla normaliser: higher = more normaliser reporter signal
- Rule for the call: 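a knock-down counted as active when the firefly/Renilla E2F signal rose above 50%, a threshold chosen arbitrarily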
The screen tested about 21,000 reagents; shown is a random part of those that have a named target and a result. In the full data, 18 (0.084%) got an active call. 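Raw counts without plate normalisation, one of two replicates; the ratio scores behind the calls were not deposited.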 The numbers tell different reagents against one gene apart. Not given: the amount of reagent, the time to read-out.

gene,dsRNA no.,"E2F firefly, rep 1","Renilla normaliser, rep 1",Outcome
Dcr-2 (Dicer-2),1,1.49e5,4603,inactive
rpr (reaper),1,1.59e5,9061,inactive
sug (sugarbabe),1,3075,190,inactive
CG7352,1,1.43e5,5939,inactive
Cht10 (Chitinase 10),1,1.08e5,4793,inactive
Cht10 (Chitinase 10),2,77777,3565,inactive
Cht10 (Chitinase 10),3,1.02e5,4272,inactive
CG10646,1,52675,3758,inactive
CG5214,1,1.52e5,7368,inactive
CG34205,1,1.04e5,4834,inactive
CG6938,1,87487,3902,inactive
Tti1 (Telo2 interacting protein 1),1,1.50e5,7230,inactive
Hey (Hairy/E(spl)-related with YRPW motif),1,1.00e5,3776,inactive
CG15822,1,1.08e5,3990,inactive
CG15822,2,89311,4572,inactive
Fitm (Fat storage inducing transmembrane protein),1,73071,3503,inactive
CG5902,1,68686,3851,inactive
CG15539,1,1.04e5,6814,inactive
"Arpc1 (Actin-related protein 2/3 complex, subunit 1)",1,91456,3821,inactive
CG8564,1,68309,3089,inactive
Ccp84Af,1,1.38e5,6780,inactive
CG6908,1,1.36e5,7154,inactive
Hmu (Hemomucin),1,1.18e5,7075,inactive
Obp56g (Odorant-binding protein 56g),1,1.46e5,5589,inactive
Mtpalpha (Mitochondrial trifunctional protein alpha subunit),1,73164,3512,inactive
Gas41,1,82005,3851,inactive
CG13800 (retired record),1,98998,3964,inactive
Psn (Presenilin),1,1.37e5,6393,inactive
CG13062,1,1.67e5,9360,inactive
TwdlZ (TweedleZ),1,84010,2708,inactive
TkR86C (Tachykinin-like receptor at 86C),1,1.38e5,6771,inactive
CG11906,1,1.53e5,4874,inactive
CG14333 (retired record),1,1.16e5,6065,inactive
CG14333 (retired record),2,56027,3359,inactive

Not a retest: an excerpt of the list.
gene,dsRNA no.,"E2F firefly, rep 1","Renilla normaliser, rep 1",Outcome
"Arpc1 (Actin-related protein 2/3 complex, subunit 1)",1,91456,3821,inactive
CG8564,1,68309,3089,inactive
Ccp84Af,1,1.38e5,6780,inactive
CG6908,1,1.36e5,7154,inactive
